Test results as given in paper PMC6321638.
Positions count from the first letter of the chain named. Names may count otherwise. These are yes or no findings as the source states them, for the method shown. Some entries that bind do so weakly or less than the wild type. Where a sequence is shown, tags or fusion partners need not be part of it.

Key:
[1] = target: GST-ALG-2^WT (wild-type ALG-2 fused to GST-tag) (mouse) (UniProt P12815); assay: pull-down; GST-pulldown: purified His-SOUL (5 µM) and GST-ALG-2 (5 µM) with Glutathione Sepharose 4B in buffer B (100 mM Tris-HCl pH 7.5, 100 mM NaCl, 10% glycerol) with 20 µM CaCl2 (or various amounts of Ca2+), 30 min at 4 °C; SDS-PAGE, Coomassie; both purified
[2] = target: T1, delta3-23ALG-2^W57A (mouse) (UniProt P12815); assay: condition: 130 µM injected into 5 µM (conditions of Figure 3C); ITC; His-SOUL (130 or 260 µM) injected into delta3-23ALG-2 (5 or 10 µM); 25 °C, pH 7.5, buffer C (25 mM HEPES, 150 mM NaCl, 10% glycerol) with 15 µM CaCl2 and 0.25% Tween 20; one-set-of-sites model (sequential-binding-sites model also tried); both purified
T1 sequence: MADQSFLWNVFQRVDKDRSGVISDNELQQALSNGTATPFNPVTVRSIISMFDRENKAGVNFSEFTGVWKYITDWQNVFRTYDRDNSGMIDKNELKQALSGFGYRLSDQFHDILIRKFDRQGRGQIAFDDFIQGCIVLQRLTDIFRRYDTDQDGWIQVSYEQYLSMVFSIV

[3] = target: GST-ALG-2^WT (wild-type ALG-2 fused to GST-tag) (mouse) (UniProt P12815); assay: pull-down; GST-pulldown as a1 but with 1 mM EGTA instead of Ca2+; both purified
GST-ALG-2^W57A (mouse) = target: T2, GST-ALG-2^W57A (mouse) (UniProt P12815); assay: pull-down; GST-pulldown: purified His-SOUL (5 µM) and GST-ALG-2 (5 µM) with Glutathione Sepharose 4B in buffer B (100 mM Tris-HCl pH 7.5, 100 mM NaCl, 10% glycerol) with 20 µM CaCl2 (or various amounts of Ca2+), 30 min at 4 °C; SDS-PAGE, Coomassie; both purified
T2 sequence: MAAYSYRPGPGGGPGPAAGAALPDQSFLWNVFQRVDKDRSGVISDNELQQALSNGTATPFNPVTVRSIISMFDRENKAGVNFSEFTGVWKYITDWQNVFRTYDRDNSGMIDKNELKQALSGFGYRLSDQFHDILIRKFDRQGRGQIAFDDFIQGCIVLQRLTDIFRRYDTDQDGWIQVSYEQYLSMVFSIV

[4] = target: delta3-23ALG-2^WT (mouse) (UniProt P12815); assay: condition: 130 µM injected into 5 µM (conditions of Figure 3C); ITC; His-SOUL (130 or 260 µM) injected into delta3-23ALG-2 (5 or 10 µM); 25 °C, pH 7.5, buffer C (25 mM HEPES, 150 mM NaCl, 10% glycerol) with 15 µM CaCl2 and 0.25% Tween 20; one-set-of-sites model (sequential-binding-sites model also tried); both purified

B1: His-SOUL102-205 (domain or fragment, UniProt Q9WU63 102-205)
chain: ESTITISLYIPSEQQPDPPRPSESDVFIEDRAEMTVFVRSFDGFSSGQKNQEQLLTLANILREEGKVFNEKVFYTAGYSSPFQLLDRNNEVWLIQKNEPSVENK
binding [1]: binds weakly

B2: His-SOUL^WT (wild-type SOUL fused to His-tag) (protein, UniProt Q9WU63 1-205)
chain: MAEEPEPDLGVAEGSEDQALEMPSWKAPEDIDPQPGSYEIRHYGPAKWVSTCVESLDWDSAIQTGFTKLNGYIQGKNEKEMKIKLTAPVTSYVEPGSSPFSESTITISLYIPSEQQPDPPRPSESDVFIEDRAEMTVFVRSFDGFSSGQKNQEQLLTLANILREEGKVFNEKVFYTAGYSSPFQLLDRNNEVWLIQKNEPSVENK
binding [2]: no binding | binding [3]: no binding (condition: with 1 mM EGTA) | binding (GST-ALG-2^W57A (mouse)): no binding (tested: 5 µM each)

B3: His-SOUL^F100A (protein, UniProt Q9WU63 1-205)
chain: B2 chain with F100A
binding [4]: no binding | binding [1]: no binding (tested: 5 µM each)
